Among the data in article PMC8346126 are binding values, retold here.

Residue numbers refer to the chain shown, from its start. Names may count otherwise. These are yes or no findings as the source states them, for the method shown.

Assay in all cases: SEC; Superdex 200 Increase GL 10/300 or Superdex 75 16/60 HR column, room temperature; columns calibrated with Bio-Rad SEC standards; molecular weights estimated from elution; both purified
Test [1] has as its target Recombinant truncated human wild-type tyrosinase (residues 19-469) (human) (UniProt P14679).
In test [2] the target is Recombinant truncated human tyrosinase OCA1B mutant variant R422Q (residues 19-469) (human) (UniProt P14679).
Test [3] deals with Recombinant truncated human tyrosinase OCA1B mutant variant P406L (residues 19-469) (human) (UniProt P14679).

B1: Recombinant truncated human wild-type tyrosinase (residues 19-469) (enzyme, UniProt P14679 19-469)
chain: HFPRACVSSKNLMEKECCPPWSGDRSPCGQLSGRGSCQNILLSNAPLGPQFPFTGVDDRESWPSVFYNRTCQCSGNFMGFNCGNCKFGFWGPNCTERRLLVRRNIFDLSAPEKDKFFAYLTLAKHTISSDYVIPIGTYGQMKNGSTPMFNDINIYDLFVWMHYYVSMDALLGGSEIWRDIDFAHEAPAFLPWHRLFLLRWEQEIQKLTGDENFTIPYWDWRDAEKCDICTDEYMGGQHPTNPNLLSPASFFSSWQIVCSRLEEYNSHQSLCNGTPEGPLRRNPGNHDKSRTPRLPSSADVEFCLSLTQYESGSMDKAANFSFRNTLEGFASPLTGIADASQSSMHNALHIYMNGTMSQVQGSANDPIFLLHHAFVDSIFEQWLRRHRPLQEVYPEANAPIGHNRESYMVPFIPLYRNGDFFISSKDLGYDYSYLQDSDPDSFQDYIKSYLE
B1: in test [1], the binding result is “no binding”.

B2: Recombinant truncated human tyrosinase OCA1B mutant variant R422Q (residues 19-469) (enzyme, UniProt P14679 19-469)
chain: B1 chain with R404Q
Take B2: the binding result in test [2] was “no binding”.

B3: Recombinant truncated human tyrosinase OCA1B mutant variant P406L (residues 19-469) (enzyme, UniProt P14679 19-469)
chain: B1 chain with P388L
B3: the binding entry in test [3] was “no binding”.
